The text below walks through data of patent US9696316B2, “Conformationally dynamic peptides” (SYSTEM OF SYSTEMS ANALYTICS, INC., priority 2009, dated 2017).

A short description of the data set: Solvent (TFE)-induced conformational change, pyrene excimer:monomer fluorescence. The data set is classed as physicochemical.

On to “KLVFFAEDVGSNKHAIIELMK (KLVFFAEDVGSNKHAIIELMK) [Peptide 22, Salt bridge at G29H and G33E]”, for which the “maximal signal response, excimer:monomer fluorescence ratio (signal gain from 80 to 20% TFE)” value (2 μM di-pyrene peptide, 10 mM Tris pH 7.0, 30 min) is “approximately 100 ratio units”. Further, the “maximal signal response relative to the reference peptide (SEQ ID NO:1)” value (signal gain from 80 to 20% TFE in buffer) is 4 times.
